Laboratory results taken from patent publication US20060052582A1, “Identification of inhibitors of mitosis” (priority 2002, published 2006).
No constants are given. Whether binding was seen depends on the method and setting. Some results given as binding are weak or reduced against the parent protein; the word gives no strength. Tags and fused reporters may be left off the sequences shown.

Chains of the proteins cited; added tags and fusions are not shown. Lines headed by an entry give the natural chain unless they say otherwise; changes in a name come on top.
UniProt Q8TD19: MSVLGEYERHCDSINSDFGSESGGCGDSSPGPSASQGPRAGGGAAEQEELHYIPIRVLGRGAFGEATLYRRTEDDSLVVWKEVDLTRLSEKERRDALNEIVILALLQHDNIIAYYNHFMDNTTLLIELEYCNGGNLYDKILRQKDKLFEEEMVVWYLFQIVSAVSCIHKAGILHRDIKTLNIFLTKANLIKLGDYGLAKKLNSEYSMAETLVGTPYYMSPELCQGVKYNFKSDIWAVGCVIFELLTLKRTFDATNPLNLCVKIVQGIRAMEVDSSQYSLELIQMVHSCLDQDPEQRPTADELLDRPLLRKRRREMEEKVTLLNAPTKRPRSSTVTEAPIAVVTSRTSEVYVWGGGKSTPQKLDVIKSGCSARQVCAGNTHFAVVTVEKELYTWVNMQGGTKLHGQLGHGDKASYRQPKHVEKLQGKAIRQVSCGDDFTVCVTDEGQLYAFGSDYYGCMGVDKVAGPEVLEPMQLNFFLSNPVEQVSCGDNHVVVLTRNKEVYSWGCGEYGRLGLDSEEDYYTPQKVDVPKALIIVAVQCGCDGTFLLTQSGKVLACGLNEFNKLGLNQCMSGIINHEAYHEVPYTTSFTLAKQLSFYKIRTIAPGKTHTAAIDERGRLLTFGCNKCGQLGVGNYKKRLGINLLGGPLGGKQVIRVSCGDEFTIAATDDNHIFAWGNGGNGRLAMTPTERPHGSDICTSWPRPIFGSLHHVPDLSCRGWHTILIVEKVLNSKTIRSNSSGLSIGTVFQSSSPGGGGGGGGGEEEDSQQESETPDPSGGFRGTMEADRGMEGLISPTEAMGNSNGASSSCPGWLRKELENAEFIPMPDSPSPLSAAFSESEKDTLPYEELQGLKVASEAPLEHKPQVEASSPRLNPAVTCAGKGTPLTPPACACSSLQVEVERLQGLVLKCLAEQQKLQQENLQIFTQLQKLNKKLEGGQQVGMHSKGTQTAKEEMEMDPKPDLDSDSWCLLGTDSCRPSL

Tests used:
HA Nercc (1-391) (human) [1] = biological target: T1, HA Nercc (1-391) (human) (UniProt Q8TD19); experiment: anti-FLAG immunoprecipitation from HEK293 cells, anti-HA blot
T1 sequence: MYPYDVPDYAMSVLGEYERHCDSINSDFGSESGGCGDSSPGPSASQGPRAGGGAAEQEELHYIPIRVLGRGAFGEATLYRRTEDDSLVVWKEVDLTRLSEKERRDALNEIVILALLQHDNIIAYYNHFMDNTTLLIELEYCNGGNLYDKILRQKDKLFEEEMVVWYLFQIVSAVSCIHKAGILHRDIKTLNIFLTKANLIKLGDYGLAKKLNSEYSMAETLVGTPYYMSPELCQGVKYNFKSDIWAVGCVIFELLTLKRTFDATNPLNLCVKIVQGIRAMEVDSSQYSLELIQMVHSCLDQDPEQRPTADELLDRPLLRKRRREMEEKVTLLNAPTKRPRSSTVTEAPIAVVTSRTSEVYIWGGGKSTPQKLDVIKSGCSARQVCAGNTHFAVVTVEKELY

HA Nercc (1-391) (human) [2] = biological target: T1, HA Nercc (1-391) (human); experiment: anti-FLAG immunoprecipitation from HEK293 cells, anti-HA blot (figure legend)

FLAG Nercc (338-739) (from UniProt Q8TD19 338-739)
binding (HA Nercc (1-391) (human) [1]): binds | binding (HA Nercc (1-391) (human) [2]): binds
